Some of the results follow. Further columns of the screen follow, without active or inactive calls. Compounds called inactive in the main read-out are mostly missing here. The note in brackets gives the kind of curve behind each potency; many fits are weak.
Assay: qHTS Assay for Lipid Storage Modulators in Drosophila S3 Cells;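 on cell number change: cells counted by Cell Tracker Red CMTPX staining in the red channel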
Settings: BODIPY lipid droplet fluorescence, 18-24 h; for cell number change: measured here: cell count max response, cells fed with added oleic acid
Procedure, shortened: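 Laser-scanning cytometry quantifies lipid droplet accumulation (500–530 nm total intensity; droplet/cell object ratio) in oleic acid-fed (400 uM added) Drosophila S3 cells treated with a concentration series. 20 uM Triacsin C defined 100% inhibition.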

[1] = measured here: lipid fluorescence (Fed channel) AC50, cells fed with added oleic acid
[2] = measured here: cell number channel AC50, cells fed with added oleic acid

| SMILES | cell number change | AC50 [1] | AC50 [2] |
| --- | --- | --- | --- |
| Cc1ccc(NC(=O)CSc2nncs2)cc1Cl | 3.29% | 0.517 µM [falling, full curve] |  |
| CC1(C)CC(CC(=O)O)(c2ccc(Cl)cc2)CCO1 (configuration not stated) |  | 4.11 µM [falling, partial curve] |  |
| CCCc1cc(C(=O)Nc2ccc(CC)cc2)no1 | -8.33% |  |  |
| COc1ccc(Cl)cc1NC(=S)Nc1cccc(C)c1 | 98.5% | 4.11 µM [falling, single point] | 6.51 µM [falling, single point] |
| Cc1c(NS(=O)(=O)c2ccc(Cl)c(C(=O)OC(C)C(=O)NCc3ccco3)c2)c(=O)n(-c2ccccc2)n1C (configuration not stated) | -16.1% |  |  |
| CCOc1ccc([C@@H]2CC=C(C(=O)O)[C@H](c3ccc(Cl)cc3)N2S(=O)(=O)c2ccc(C)cc2)cc1 | -16% | 29.1 µM [rising, single point] |  |
| N/C(=N\OC(=O)c1cccs1)c1cccnc1 | 10.9% | 0.326 µM [falling, full curve, poor fit] |  |
| Cc1cc(C)n(C(=O)c2cc3sccc3[nH]2)n1 | -20.9% | 6.51 µM [rising, single point] |  |
| Cc1ccc(C)c(C(=O)Nc2cc(C)nn2-c2nc(C)cc(C)n2)c1 | 34.8% |  | 29.1 µM [rising, single point] |
| N#Cc1cccc(-n2c(-c3ccccc3)nnc2-c2ccccc2)c1C#N |  |  | 0.164 µM [rising, full curve, poor fit] |
| CCN(CC)c1ccc(C(=O)NC(=S)Nc2cc(S(=O)(=O)N3CCOCC3)ccc2-n2cncn2)cc1 | -44.1% |  | 0.00411 µM [falling, full curve, poor fit] |
| Cc1nn(C(=O)CN2C(=O)c3ccccc3C2=O)c(C)c1Br | 11.2% | 25.9 µM [rising, single point] |  |
| Cc1ccc(C2C3=C(Nc4[nH]n(-c5ccccc5)c(=O)c42)c2ccccc2C3=O)cc1 (configuration not stated) | 6.84% |  |  |
| Cc1ccc(Cl)cc1NC(=O)COc1ccccc1 | 12.7% |  |  |
| CCCc1ccc(C(=O)N2CCN(c3ccccc3OCC)CC2)cc1 | 66.2% |  |  |
| COc1ccc(C(Nc2cc(C)ccn2)c2ccc3ccc(C)nc3c2O)cc1 (configuration not stated) |  | 29.1 µM [falling, single point] |  |
| CC(=O)Nc1ccccc1C(=O)C(=O)Nc1ccc(Cl)cc1 | 43.2% | 29.1 µM [rising, single point] |  |
| Nc1ccc(-c2nnn(CC(=O)N3CCCCC3)n2)cc1 | 9.38% | 18.4 µM [rising, single point] |  |
| Cc1ccc(NC(=O)C(=O)NCC2CCCO2)cc1C (configuration not stated) | 4.78% | 4.61 µM [falling, single point] |  |
| O=c1cc(CN2CCN(Cc3ccccc3)CC2)c2ccc(O)cc2o1 | 35.9% | 29.1 µM [falling, single point] | 25.9 µM [rising, partial curve] |
| COC(=O)Cc1ccc2c3ccccc3n(C)c2c1 | -1.6% | 0.116 µM [falling, full curve, poor fit] |  |

| SMILES | cell number change | AC50 [1] | AC50 [2] |
| --- | --- | --- | --- |
| CCn1nc(C)cc1C(=O)NC1CC(C)(C)Cc2c1cnn2-c1cccc(F)c1 (configuration not stated) |  | 29.1 µM [falling, single point] |  |
| O=Cc1cn(CCC(=O)O)nc1-c1cccc(Br)c1 | -40.4% |  | 29.1 µM [falling, single point] |
| COC(=O)C1=C(C)N(Cc2ccccc2)C(=NCC2CC2)N[C@H]1c1ccccc1 | -15.8% |  |  |
| CC(=O)N1CCN(S(=O)(=O)c2cccc(C(=O)Nc3ccc(C)cn3)c2)CC1 | -27.7% |  |  |
| COC(=O)c1sc(S(=O)(=O)NC(Cc2ccccc2)C(=O)O)c(C(=O)OC)c1C (configuration not stated) | 6.7% | 1.03 µM [falling, full curve, poor fit] | 1.84 µM [falling, partial curve, poor fit] |
| Cc1cc(NC(=O)C2CCCC2)nc2c1c(=O)oc1ccccc12 | 22.7% | 0.366 µM [rising, partial curve, poor fit] |  |
| Cc1ccc(CN2CC(C(=O)Nc3ccc4c(C)cc(=O)oc4c3)CC2=O)cc1 (configuration not stated) | 49.1% | 0.58 µM [rising, single point] | 0.461 µM [rising, single point] |
| COCc1cc(C)nc2oc(C(=O)c3ccccc3)c(N)c12 | 14.2% | 25.9 µM [falling, partial curve] |  |
| c1ccc(-c2noc(CN3CCN(c4ccccc4)CC3)n2)cc1 | 17% | 14.6 µM [rising, single point] |  |
| COC(=O)c1ccc(NC(=O)COC(=O)C2CCC2)cc1 | 22.9% |  |  |
| Cc1nc2ccccc2n1/N=C/c1cccnc1 | 122% | 0.461 µM [rising, full curve, poor fit] | 2.31 µM [rising, partial curve] |
| COc1ccc(CNC(=O)Cn2c(=O)oc3cc(S(=O)(=O)N4CCCC4)ccc32)cc1 | -26.9% | 29.1 µM [falling, single point] |  |
| O=C(CSc1ccc2ccccc2c1)Nc1ccc(S(=O)(=O)Nc2nccs2)cc1 |  | 20.6 µM [rising, partial curve] | 6.51 µM [rising, single point] |
| CC(=O)c1cnc2cc(-c3cccc(Br)c3)nn2c1C | 28.4% | 29.1 µM [rising, single point] |  |
| Cc1ccccc1N=C1SC(CC(=O)Nc2ccc3ccccc3c2)C(=O)N1Cc1ccccn1 (configuration not stated) | -22.7% |  |  |
| CCc1cccc(CC)c1NC(=O)COc1ccccc1C(=O)c1cc(C#N)c(=O)n(C2CCCCC2)c1 | 13.2% |  |  |
| O=C(O)c1cc(Cl)c2ccccc2c1O | -9.84% | 0.731 µM [falling, single point] |  |
| O=C(COc1ccc2c3c(c(=O)oc2c1)CCCC3)NCC(O)c1ccccc1 (configuration not stated) | -4.56% |  |  |
| CCOC(=O)C1=C(O)/C(=C/c2ccc(CNC(=O)C(=O)Nc3ccc(C)cc3)o2)N=C1C |  | 0.651 µM [rising, single point] | 0.82 µM [rising, single point] |
| Cc1cc(C)c2c(c1)/C(=N/Nc1ccc(S(N)(=O)=O)cc1[N+](=O)[O-])CCC2 | -24.2% |  | 1.84 µM [falling, partial curve, poor fit] |

Individual results from the results shown.
cell number change with CC(=O)Nc1ccccc1C(=O)C(=O)Nc1ccc(Cl)cc1 is entered as 43.2%
AC50 [1] with COC(=O)Cc1ccc2c3ccccc3n(C)c2c1 is entered as 0.116 µM [falling, full curve, poor fit]

Source: PubChem BioAssay AID2685 (National Center for Advancing Translational Sciences (NCATS), 2010)
